Data reported in article PMC10838314, “Exploring TRF2-Dependent DNA Distortion Through Single-DNA Manipulation Studies”.

By UniProt entry, the sequences of proteins in these tests, tags left out. Residues count along the entry.
UniProt Q15554, 43-542: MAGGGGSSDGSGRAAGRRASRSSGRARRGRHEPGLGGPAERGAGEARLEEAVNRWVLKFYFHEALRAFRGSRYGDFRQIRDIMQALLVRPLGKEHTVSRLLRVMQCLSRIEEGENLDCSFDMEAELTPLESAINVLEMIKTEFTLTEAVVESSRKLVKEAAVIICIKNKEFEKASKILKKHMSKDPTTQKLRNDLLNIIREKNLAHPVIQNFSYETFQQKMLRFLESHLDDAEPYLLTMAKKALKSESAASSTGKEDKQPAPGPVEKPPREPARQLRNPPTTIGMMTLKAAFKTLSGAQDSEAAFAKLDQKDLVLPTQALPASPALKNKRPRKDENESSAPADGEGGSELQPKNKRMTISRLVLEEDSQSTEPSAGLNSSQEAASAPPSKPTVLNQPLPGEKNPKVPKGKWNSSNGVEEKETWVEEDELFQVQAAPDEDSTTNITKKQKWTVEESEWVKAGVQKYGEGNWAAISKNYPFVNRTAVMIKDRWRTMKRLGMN

Target: hTRF2 full-length (Homo sapiens) (UniProt Q15554)
Test: magnetic tweezers force-extension
Conditions: compaction at 20-50 nM, 150 mM KCl, compaction abolished in 300 mM KCl without dissociation; Magnetic tweezers: 150 mM KCl (stretching); recombinant protein; residues 43-542; protein details: N-terminal His6 removed by TEV; label: 5' biotin and 3' thiol via ligated handles

“CCATCGACATGGGAGCTCGCGTTGATGCATGTATGTCCCGGGTTAGGGTTAGGGTTAGGGTTAGGGTTAGGGTTAGGGTTAGGGTTAGGGTTAGGGTTAGGGTTAGGGTTAGGGTTAGGGTTAGGGTTAGGGTTAGGGTTAGGGTTAGGGTTAGGGTTAGGGTTAGGGTTAGGGTTAGGGTTAGGGTTAGGGTTATAAGTGTTGCTGCAGCCATGTCGATGG (double strand) [25-repeat telomeric dsDNA (200 bp)]”: binds.
